Measured values from patent US20060052582A1, “Identification of inhibitors of mitosis” (priority 2002, published 2006).
Results are given in words; binding and its absence hold for the method and conditions named. In cells and extracts the contact can be indirect. Some binding calls cover weakened binding; strength is not graded here. Sequences can lack the tags named with a protein.

Legend:
GST Nek6 (human) [1] = test: GSH-agarose pull-down from co-transfected 293 cells, anti-FLAG blot
GST Nek6 (human) [2] = test: GSH-agarose pull-down from co-transfected HEK293 cells (figure legend)
[3] = target: GST Nercc (891-940) (human); test: GST-agarose pull-down from co-transfected HEK293 cells, anti-FLAG blot

Measured: binding

B1: FLAG Nercc (full-length wild type Nercc1 kinase with FLAG epitope tag) (enzyme)
chain: MDYKDDDDKMSVLGEYERHCDSINSDFGSESGGCGDSSPGPSASQGPRAGGGAAEQEELHYIPIRVLGRGAFGEATLYRRTEDDSLVVWKEVDLTRLSEKERRDALNEIVILALLQHDNIIAYYNHFMDNTTLLIELEYCNGGNLYDKILRQKDKLFEEEMVVWYLFQIVSAVSCIHKAGILHRDIKTLNIFLTKANLIKLGDYGLAKKLNSEYSMAETLVGTPYYMSPELCQGVKYNFKSDIWAVGCVIFELLTLKRTFDATNPLNLCVKIVQGIRAMEVDSSQYSLELIQMVHSCLDQDPEQRPTADELLDRPLLRKRRREMEEKVTLLNAPTKRPRSSTVTEAPIAVVTSRTSEVYIWGGGKSTPQKLDVIKSGCSARQVCAGNTHFAVVTVEKELYTWVNMQGGTKLHGQLGHGDKASYRQPKHVEKLQGKAIHQVSCGDDFTVCVTDEGQLYAFGSDYYGCMGVDKVAGPEVLEPMQLNFFLSNPVEQVSCGDNHVVVLTRNKEVYSWGCGEYGRLGLDSEEDYYTPQKVDVPKALIIVAVQCGCDGTFLLTQSGKVLACGLNEFNKLGLNQCMSGIINHEAYHEVPYTTSFTLAKQLSFYKIRTIAPGKTHTAAIDERGRLLTFGCNKCGQLGVGNYKKRLGINLLGGPLGGKQVIRVSCGDEFTIAATDDNHIFAWGNGGNGRLAMTPTERPHGSDICTSWPRPIFGSLHHVPDLSCRGWHTILIVEKVLNSKTIRSNSSGLSIGTVFQSSSPGGGGGGGGGEEEDSQQESETPDPSGGFRGTMEADRGMEGLISPTEAMGNSNGASSSCPGWLRKELENAEFIPMPDSPSPLSAAFSESEKDTLPYEELQGLKVASEAPLEHKPQVEASSPRLNPAVTCAGKGTPLTPPACACSSLQVEVERLQGLVLKCLAEQQKLQQENLQIFTQLQKLNKKLEGGQQVGMHSKGTQTAKEEMEMDPKPDLDSDSGCLLGTDSCRPSL
binds: all assays above
